Publication PMC4411066
Results are given in words; binding and its absence hold for the method and conditions named. Binding seen in cells or lysates may run through a third protein. Some entries that bind do so weakly or less than the wild type.

The chains behind the UniProt entries cited, without tags or fusion partners. Residues count along the entry.
UniProt Q99836: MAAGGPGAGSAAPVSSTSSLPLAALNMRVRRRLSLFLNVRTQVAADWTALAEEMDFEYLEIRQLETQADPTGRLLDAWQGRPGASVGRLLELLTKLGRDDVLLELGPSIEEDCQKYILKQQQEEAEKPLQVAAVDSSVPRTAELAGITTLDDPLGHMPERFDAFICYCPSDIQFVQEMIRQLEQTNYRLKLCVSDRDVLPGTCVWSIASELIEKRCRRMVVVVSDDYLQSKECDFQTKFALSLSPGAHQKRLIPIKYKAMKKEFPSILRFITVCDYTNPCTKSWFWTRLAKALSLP
UniProt P62993: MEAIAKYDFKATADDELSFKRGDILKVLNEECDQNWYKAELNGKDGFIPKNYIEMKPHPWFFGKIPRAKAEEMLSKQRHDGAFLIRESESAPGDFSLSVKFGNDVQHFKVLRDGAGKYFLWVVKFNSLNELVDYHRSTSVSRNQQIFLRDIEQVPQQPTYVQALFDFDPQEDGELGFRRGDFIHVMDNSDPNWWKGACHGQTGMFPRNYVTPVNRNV
UniProt O00206, residues 24-839: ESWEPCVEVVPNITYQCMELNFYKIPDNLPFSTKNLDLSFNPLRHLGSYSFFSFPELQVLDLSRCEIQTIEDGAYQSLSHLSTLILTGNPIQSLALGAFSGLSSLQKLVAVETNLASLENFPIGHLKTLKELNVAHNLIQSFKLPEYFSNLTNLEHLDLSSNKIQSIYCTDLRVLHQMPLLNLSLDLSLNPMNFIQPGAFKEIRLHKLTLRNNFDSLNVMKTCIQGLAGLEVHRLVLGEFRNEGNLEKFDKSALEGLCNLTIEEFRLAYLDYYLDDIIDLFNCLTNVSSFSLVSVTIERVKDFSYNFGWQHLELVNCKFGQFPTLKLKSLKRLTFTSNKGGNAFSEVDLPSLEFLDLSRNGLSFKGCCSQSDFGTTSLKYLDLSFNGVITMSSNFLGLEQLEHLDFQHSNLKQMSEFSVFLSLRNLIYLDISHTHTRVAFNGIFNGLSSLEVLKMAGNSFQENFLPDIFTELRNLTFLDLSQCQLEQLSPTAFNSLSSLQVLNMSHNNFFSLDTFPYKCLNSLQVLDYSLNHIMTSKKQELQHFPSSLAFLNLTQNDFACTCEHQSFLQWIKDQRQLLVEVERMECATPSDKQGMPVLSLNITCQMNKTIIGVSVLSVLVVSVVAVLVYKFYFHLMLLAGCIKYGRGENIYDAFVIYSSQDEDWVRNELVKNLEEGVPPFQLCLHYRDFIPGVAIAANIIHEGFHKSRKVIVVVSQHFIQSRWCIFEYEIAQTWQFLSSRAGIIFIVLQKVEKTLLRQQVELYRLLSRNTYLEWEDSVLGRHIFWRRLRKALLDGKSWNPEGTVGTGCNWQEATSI

Key:
[1] = target: MyD88 (human (endogenous in H69)) (UniProt Q99836); assay: co-IP; H69 cell lysates, cells cultured in the presence or absence of LPS; pre-cleared with Protein A/G sepharose, MyD88 or SOS1 antibody overnight at 4°C; Western blots for Grb2 or TLR4
[2] = target: MyD88 (human (endogenous in H69)) (UniProt Q99836); assay: condition: only cells cultured in the absence of LPS; FRET or BRET; acceptor photobleach FRET on fixed H69 cells transfected with Myc-tagged Grb2, cultured in the absence of LPS; anti-MyD88 and anti-Myc-tag antibodies with Cy3 or Cy5-conjugated secondary antibodies

Row | binding [1] | binding [2] | Substance
1 | binds |  | Grb2 (from UniProt P62993 1-217)
2 |  | no binding | Myc-tagged Grb2 (from UniProt P62993 1-217)
3 | binds |  | TLR4 (from UniProt O00206 24-839) (receptor)
